Assay results reported in the supplement of paper PMC10663445.
Counter-ions that a name gives are not always drawn. The list shows a part of the results. Single values are uncertain, as repeats are few or missing.

The molecules below were run on hsa-miR-132-3p (assay: miR-132-3p level in NGN2-iNs after compound treatment (TMM-normalised, ComBat batch-corrected) (batch-corrected normalised expression (arbitrary units)); higher = higher miR-132-3p expression). Conditions: 10 µM; 24 h; human iPSC-derived NGN2 neurons (BR43).

Row | SMILES | miR-132-3p level in NGN2-iNs
1 | Cc1ccc([N+](=O)[O-])cc1S(=O)(=O)N(C)/N=C/c1cnc2ccc(Br)cn12 | -2.85
2 | NC(N)=Nc1nc(CSCC/C(N)=N/S(N)(=O)=O)cs1 [Famotidine] | -2.29
3 | CC/C(=C(/CC)c1ccc(O)cc1)c1ccc(O)cc1 [Diethylstilbestrol] | -0.17
4 | CC1=C(/C=C/C(C)=C/C=C/C(C)=C\C(=O)O)C(C)(C)CCC1 [Isotretinoin] | 0.202
5 | COc1cc(OC)c(/C=C/S(=O)(=O)Cc2ccc(OC)c(NCC(=O)O)c2)c(OC)c1 | 2.76
6 | OC(CN1CCN(c2cccc(Cl)c2)CC1)C(c1ccccc1)c1ccccc1 (stereo not drawn) | -1.31
7 | Cc1ccc2nc(NC(=O)CSc3nc4c(c(=O)n3-c3ccccc3)SCC4)sc2c1 | -1.06
8 | Cn1cc(-c2ccc3c(c2)CCN3C(=O)Cc2cccc(C(F)(F)F)c2)c2c(N)ncnc21 | 0.00914
9 | O=C(/C=C/c1ccc(O)c(O)c1)O[C@@H]1C[C@](O)(C(=O)O)C[C@@H](O)[C@H]1O [Chlorogenic Acid] | -0.0394
10 | C[C@@H]1COC(Nc2ccc3ncnc(Nc4ccc(OCc5nccs5)c(Cl)c4)c3c2)=N1 [Varlitinib] | 0.29
11 | CCN(CC)CCCCNc1ncc2cc(-c3cc(OC)cc(OC)c3)c(NC(=O)NC(C)(C)C)nc2n1 | 0.328
12 | CC[C@@H](CO)NCCN[C@@H](CC)CO [Ethambutol 2HCl] | -2.13
13 | C=CS(=O)(=O)NC1CCN(C(=O)CNc2cc(I)c(Cl)cc2OC)CC1 [K-Ras(G12C) inhibitor 9] | -0.822
14 | CCCOc1ccc(C(=O)OCCN(CC)CC)cc1N [Proparacaine HCl] | -0.896
15 | CN1C2CCC1CC(OC(=O)C(O)c1ccccc1)C2 (stereo not drawn) [Homatropine Bromide] | 0.0788
16 | NC(=O)c1cccc(N)c1 [3-Aminobenzamide] | -1.52
17 | Cc1ccc(-n2nc(C(C)(C)C)cc2NC(=O)Nc2ccc(OCCN3CCOCC3)c3ccccc23)cc1 [Doramapimod (BIRB 796)] | -0.157
18 | Cc1cc(OCc2nnc(SC3CCCC3)n2-c2cccnc2)ccc1-c1ccc(S(C)(=O)=O)cc1 | -0.894
19 | CNC(=O)c1ccc(C)c(-n2c(C)cc(OCc3ccc(F)cc3F)c(Br)c2=O)c1 | -1.03
20 | CN(C)CC/C=C1/c2ccccc2COc2ccc(CC(=O)O)cc21 [Olopatadine HCl] | 0.486
21 | c1ccc(CN(CC2=NCCN2)c2ccccc2)cc1 [Antazoline HCl] | -0.309
22 | CN(C)Cc1ccc(S(=O)(=O)n2ccc(/C=C/C(=O)NO)c2)cc1 [Resminostat] | -0.876
23 | Nc1ncnc2n[nH]c(Nc3ccc(F)cc3)c12 | 0.0235
24 | CCn1cc(NC(=S)Nc2cc(Cl)ccc2OC)c(C(N)=O)n1 | -0.773
25 | CN(C)CC(c1ccc(O)cc1)C1(O)CCCCC1 (stereo not drawn) [Desvenlafaxine Succinate] | -0.422
26 | CN(C)CC(c1ccc(O)cc1)C1(O)CCCCC1 (stereo not drawn) [Desvenlafaxine] | -0.225

Row | SMILES | miR-132-3p level in NGN2-iNs
27 | COc1ccc(S(=O)(=O)N(CCO)c2ccccc2CN(C)C/C=C/c2ccc(Cl)cc2)cc1 [KN-93 Phosphate] | -0.39
28 | O=C(Nc1ccccc1Br)N[C@@H]1CCN(c2ccc(C(F)(F)F)cn2)C1 | -1.08
29 | O=C(c1ccccc1)c1ccc2n1CCC2C(=O)O (stereo not drawn) [Ketorolac] | 0.811
30 | CCN(CC)CCCC(C)Nc1nc(C)cc(Nc2ccc3nc(C)cc(N)c3c2)n1 (stereo not drawn) | -0.767
31 | C#CCC(Cc1cnc2nc(N)nc(N)c2n1)c1ccc(C(=O)N[C@@H](CCC(=O)O)C(=O)O)cc1 (stereo partly drawn) [Pralatrexate] | 0.493
32 | CC(C)(O)c1ccccc1CC[C@@H](SCC1(CC(=O)O)CC1)c1cccc(/C=C/c2ccc3ccc(Cl)cc3n2)c1 [Montelukast Sodium] | -0.0685
33 | O=C1NC(=O)C(=Cc2ccc(-c3ccc(F)cc3)o2)S1 (stereo in doubt) | 0.805
34 | OC[C@@H](O)[C@@H](O)[C@@H](O)CO [Ribitol] | 1.11
35 | O=C(Nc1ccccc1)Nc1ccc(-c2ccc(C(=O)[C@@H]3CCC[C@H]3C(=O)O)cc2)cc1 | -0.843
36 | COC(=O)Nc1nc2cc([S+]([O-])c3ccccc3)ccc2[nH]1 (stereo not drawn) [Oxfendazole] | -0.0299
37 | COc1ccccc1OCC(O)COC(N)=O (stereo not drawn) [Methocarbamol] | 0.266
38 | CCc1c(Cl)c(O)c(Cl)c(O)c1C(=O)O[C@H]1[C@H](O)[C@H](OC)[C@H](OC/C2=C\C=C\C[C@H](O)/C(C)=C/[C@H](CC)[C@@H](O[C@@H]3OC(C)(C)[C@@H](OC(=O)C(C)C)[C@H](O)[C@@H]3O)/C(C)=C/C(C)=C/C[C@@H]([C@@H](C)O)OC2=O)O[C@@H]1C [Fidaxomicin] | -1.25
39 | Clc1ccc(Nc2nnc(Cc3ccncc3)c3ccccc23)cc1 [Vatalanib (PTK787) 2HCl] | 0.0502
40 | Cc1cc(O)c2c(c1)C(=O)c1cc(O)cc(O)c1C2=O [Emodin] | -1.05
41 | O=C1NC(=O)/C(=C/c2cccc(C(F)(F)F)c2)S1 | -0.686
42 | CCOC(=O)[C@H](CCc1ccccc1)N[C@@H](C)C(=O)N1Cc2cc(OC)c(OC)cc2C[C@H]1C(=O)O [Moexipril HCl] | 0.431
43 | O=c1[nH]cnc2[nH]ncc12 [Allopurinol Sodium] | 0.379
44 | C[N+](C)(C)CCO.[Cl-] [Choline Chloride] | 0.942
45 | C[C@H]1COc2c(N3CCN(C)CC3)c(F)cc3c(=O)c(C(=O)O)cn1c23 [Levofloxacin] | -0.711
46 | NC(CO)C(=O)NNCc1ccc(O)c(O)c1O (stereo not drawn) [Benserazide HCl] | 1.67
47 | CCCC(=O)OCOC(=O)C1=C(C)NC(C)=C(C(=O)OC)C1c1cccc(Cl)c1Cl (stereo not drawn) [Clevidipine Butyrate] | -0.901
48 | CN1CCN(c2ccc(OC(F)(F)F)c(Nc3ncc4c(n3)-c3c(c(C(N)=O)nn3CCO)CC4)c2)CC1 | 0.838
49 | O=C(O)CSCC(=O)NC1CCSC1=O (stereo not drawn) [Erdosteine] | -0.964
50 | Cc1cc2c(F)c(Oc3ncnn4cc(OC[C@@H](C)O)c(C)c34)ccc2[nH]1 | -2.85
51 | COc1cc(/C=C/C(=O)CC(=O)/C=C/c2ccc(O)c(OC)c2)ccc1O [Curcumin] | 0.897
52 | CC(C)CN(C[C@@H](O)[C@H](Cc1ccccc1)NC(=O)O[C@H]1CO[C@H]2OCC[C@H]21)S(=O)(=O)c1ccc(N)cc1 [Darunavir Ethanolate] | 0.429

Pulled one by one from the list above:
Row | SMILES | miR-132-3p level in NGN2-iNs
52 | CC(C)CN(C[C@@H](O)[C@H](Cc1ccccc1)NC(=O)O[C@H]1CO[C@H]2OCC[C@H]21)S(=O)(=O)c1ccc(N)cc1 [Darunavir Ethanolate] | 0.429
41 | O=C1NC(=O)/C(=C/c2cccc(C(F)(F)F)c2)S1 | -0.686
38 | CCc1c(Cl)c(O)c(Cl)c(O)c1C(=O)O[C@H]1[C@H](O)[C@H](OC)[C@H](OC/C2=C\C=C\C[C@H](O)/C(C)=C/[C@H](CC)[C@@H](O[C@@H]3OC(C)(C)[C@@H](OC(=O)C(C)C)[C@H](O)[C@@H]3O)/C(C)=C/C(C)=C/C[C@@H]([C@@H](C)O)OC2=O)O[C@@H]1C [Fidaxomicin] | -1.25

The list continues:

Row | SMILES | miR-132-3p level in NGN2-iNs
53 | CC(C)(O)C1CCC(C)(C2C(O)CC3(C)C4CC(OC5OC(CO)C(O)C(O)C5O)C5C(C)(C)C(OC6OCC(O)C(O)C6O)CCC56CC46CCC23C)O1 (stereo not drawn) [Astragaloside A] | 1.68
54 | OCCN1C[C@H](O)[C@@H](O)[C@H](O)[C@H]1CO [Miglitol] | -0.642
55 | CC(=O)OCC[N+](C)(C)C [Acetylcholine Chloride] | -0.185
56 | Cn1cnc([N+](=O)[O-])c1Sc1ncnc2[nH]cnc12 [Azathioprine] | 0.653
57 | CC(C)C(=O)Nc1ccc([N+](=O)[O-])c(C(F)(F)F)c1 [Flutamide] | -1.11
58 | O=C(O)CCCC[C@@H]1SC[C@@H]2NC(=O)N[C@@H]21 [Biotin (Vitamin B7)] | 0.169
59 | CCOC(=O)Nc1ccc(NCc2ccc(F)cc2)nc1N [Flupirtine maleate] | -1.05
60 | COC(=O)C1=C(C)NC(C)=C(C(=O)OC(C)C)C1c1cccc2nonc12 (stereo not drawn) [Isradipine] | -0.29
61 | Cn1c(Nc2ccc(C(F)(F)F)cc2)nc2cc(Oc3ccnc(-c4ncc(C(F)(F)F)[nH]4)c3)ccc21 | -1.34
62 | C[C@H](CCC(=O)O)[C@H]1CC[C@H]2[C@@H]3CC[C@@H]4C[C@H](O)CC[C@]4(C)[C@H]3CC[C@]12C [Lithocholic acid] | -0.116
63 | NCc1c[nH]c(=S)n1C1CCc2c(F)cc(F)cc2C1 [(R)-Nepicastat HCl] | -0.426
64 | CC(=O)SCC(Cc1ccccc1)C(=O)NCC(=O)OCc1ccccc1 (stereo not drawn) [Racecadotril] | 0.355
65 | C[C@@]1(c2cc(-c3cncnc3)c(F)cc2F)CCSC(N)=N1 | 1.8
66 | CCc1cnn2c(NCc3ccc[n+]([O-])c3)cc(N3CCCC[C@H]3CCO)nc12 | 0.924
67 | COc1ccccc1N1CCN(CCCNc2cc(=O)n(C)c(=O)n2C)CC1 [Urapidil HCl] | -0.479
68 | O=C(Nc1cccc(Nc2ncc(Br)c(NCCc3cnc[nH]3)n2)c1)N1CCCC1 | 0.548
69 | O=C(/C=C/C=C/c1ccc2c(c1)OCO2)N1CCCCC1 [Piperine] | -0.74
70 | O=C(O)C(S)=Cc1c[nH]c2ccc(F)cc12 | 0.192
71 | CCC(=O)OCC(=O)[C@@]1(OC(=O)CC)[C@@H](C)C[C@H]2[C@@H]3CCC4=CC(=O)C=C[C@]4(C)[C@@]3(Cl)[C@@H](O)C[C@@]21C [Beclomethasone dipropionate] | 0.125
72 | C=CCn1c(=O)c2cnc(Nc3ccc(N4CCN(C)CC4)cc3)nc2n1-c1cccc(C(C)(C)O)n1 [Adavosertib (MK-1775)] | 0.204
73 | c1cn2cc(-c3ccc4cn[nH]c4c3)nc(Nc3ccc(N4CCOCC4)cc3)c2n1 [Entospletinib (GS-9973)] | 1.06
74 | CC(C)(C(=O)NCC(F)(F)C(F)(F)F)C(=O)N[C@@H]1C(=O)Nc2ccccc2-c2ccccc21 | 1.17
75 | O=C1OC(CN2CCOCC2)CN1/N=C/c1ccc([N+](=O)[O-])o1 (stereo not drawn) [Furaltadone HCl] | -0.235
76 | Cc1ccc(-c2c(-c3nn(C)c4ncnc(N5CC[C@H](N6CCCCC6)C5)c34)cnn2C)cc1 | -0.283
77 | O=C1c2c(O)cc(O)cc2O[C@H](c2cc(O)c(O)c(O)c2)[C@H]1O [Dihydromyricetin] | -0.487
78 | C[C@H]1[C@H](OC(=O)CCC(=O)O)O[C@@H]2O[C@@]3(C)CC[C@H]4[C@H](C)CC[C@@H]1[C@@]24OO3 [Artesunate] | -0.536
